Measured values from PMC8950706 (International Journal of Molecular Sciences, 2022).

Assay: peptide made by a vendor (peptide synthesis; Rink amide resin)
Settings: whole synthesis, RP-HPLC recording the absorbance at 214 nm, acetate

Question: With ChexRPDKPRPYLPRPRPPRPVR-NH2 as the substance, how does the “final HPLC purity” value read?
Answer: Its value is 97.3%.
